## Library screen at single concentrations

Each number is a percent effect as filed. The record does not define 0% and 100%; most values in the screen are far below 50% and negative numbers occur (in some assays of this library far below -100). This is an unselected part of the compounds tested. Two or more numbers in one place are separate tests of the same structure; such repeats can differ widely.

Mtb glucose medium: 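Whole-cell growth test on Mycobacterium tuberculosis, read after 3 days in glucose-containing 7H9 medium; the read-out is not stated. Tested at 50 µM. Direction is inferred from retests: higher values go with more growth inhibition. Size under these conditions: about 69,000 compounds, about 760 of them at 50% or above in at least one test.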
Mtb cholesterol medium: 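Whole-cell growth test on Mycobacterium tuberculosis, read after 4 days in a medium based on cholesterol and the lipid DPPC; the read-out is not stated. Concentration: 50 µM. Direction is inferred from retests: higher values go with more growth inhibition. Of about 69,000 compounds tested this way, about 370 (0.54%) reached 50% or more in at least one test.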

| # | structure | Mtb glucose medium | Mtb cholesterol medium |
|---|---|---|---|
| 1 | `CCOC(=O)NC(CNC(=O)c1cccc(C)n1)CC(C)C` (configuration not stated) | -3.028% and -13.42% | 0.5504% |
| 2 | `CCc1nnc2n1CCN(C(=O)Cc1nc(-c3ccco3)oc1C)C2` | -53.65% | -0.6592% |
| 3 | `Cc1cc(C)nc(Nc2cccc(C3CCCN(C(C)C)C3)n2)n1` (configuration not stated) | 3.887% | -0.1904% |
| 4 | `COCCN1CCC(CN(CC2CCCO2)C(=O)C2CCOCC2)CC1` (configuration not stated) | 8.096% | 1.469% |
| 5 | `CCc1noc(CC)c1CNC(=O)Nc1cccc([S+](C)[O-])c1` (configuration not stated) | -2.306% | -5.578% |
| 6 | `CC(C)(C)C(=O)NS(=O)(=O)c1ccc(C#N)cc1C(F)(F)F` | 10.96% | -8.23% |
| 7 | `Cc1ccccc1[C@@H]1CN(CCOCCO)C[C@H]1C(=O)O` | -11.45% and 6.119% | -6.854% |
| 8 | `CC(C)(C)C(=O)CN1Cc2ccccc2NCCC1=O` | 10.51% | -12.33% |
| 9 | `CCOc1ccccc1C(=O)NCc1nncn1C1CC1` | 21.96% | -34.83% |
| 10 | `O=C(C1CC1)N1CC2(CCN(CC3CC3)CC2)c2cc(F)ccc21.O=C(O)C(F)(F)F` | -4.176% | -6.011% |
| 11 | `CS(=O)(=O)c1ccccc1-n1cc(NC(=O)CC(F)(F)F)cn1` | -1.185% and 3.047% | 3.795% |
| 12 | `CN(C(=O)NCc1nccn1CCc1ccccc1)C1CCC1` | 0.8385% | 11.72% |
| 13 | `Cn1cc(CN2Cc3cn(C)nc3C(COCC3CC3)C2)cn1` (configuration not stated) | -9.532% | -0.1053% |
| 14 | `N#Cc1ccc(F)c(CN2CCCCC2Cn2cccn2)c1` (configuration not stated) | 1.104% and -11.39% | -3.094% |
| 15 | `Cc1cc(CN(C)CC2CC(C3CCCCC3)=NO2)no1` (configuration not stated) | 4.265% | 2.602% |
| 16 | `CCC(Nc1ccc(Oc2ccccc2OC)cc1)C(N)=O` (configuration not stated) | 5.603% | 7.713% |
| 17 | `Clc1ccc(CN2CCc3c(ncn3C3CC3)C2)c2ncccc12` | 6.899% | 1.399% |
| 18 | `Cc1nc(N2CCCC2)ccc1NCc1ccccn1` | -39.4% | -4.141% |
| 19 | `CCOc1ncccc1CNC(=O)Nc1ccccc1` | -8.056% | -37.06% |
| 20 | `COc1ccccc1C1(O)CCCN(C(=O)c2csc(C(C)=O)c2)C1` (configuration not stated) | 19.12% | 3.121% |
| 21 | `CCc1cnc(N)nc1NCCN1CCCCC1` | -11.2% | -16.07% |
| 22 | `O=C1CN(Cc2cn(CC3CCN(C4CCSCC4)CC3)nn2)CCN1` | -0.5248% and -3.16% | -10.14% |
| 23 | `CCOc1ccc(C(=O)N2CCCC(c3nccn3C)C2)cc1OCC` (configuration not stated) | -20.3% | -15.78% and -7.627% |
| 24 | `O=C(O)C(F)(F)F.[H][C@]12CCC(=O)N(c3cccnc3)[C@@]1([H])CCN2C(=O)c1ccc(C)o1` | -10.58% | 17.65% and -8.346% |
| 25 | `CCC(C)N(CCOC)Cc1nc2c(cnn2C)c(=O)[nH]1` (configuration not stated) | -24.19% | -25.4% |
| 26 | `CC(=O)NCC1CN(c2ccc3c(Cl)ccnc3c2F)CCO1` (configuration not stated) | -2.33% | -15.7% |
| 27 | `O=C(O)C(F)(F)F.[H][C@@]12CCN(Cc3ccsc3)C[C@@]1([H])[C@H](C(=O)NC1CC1)CCO2` | 8.216% | 0.1428% |
| 28 | `c1ccc(C2CCN(c3ncnc4c3CCNC4)CC2)cc1` | 18.34% and 30.03% | 23.42% |
| 29 | `CCc1nnc(CNC(=O)CCCN2CCCCC2)s1` | 11.25% | 11.89% |
| 30 | `Cc1ccc(NC(=O)c2ccc(N3CCCCC3)nn2)c(Cl)c1` | -13.88% | -42.29% |
| 31 | `CNC(=O)C(CCSC)NC(=O)c1ccc2ccccc2n1` (configuration not stated) | -12.03% | -10.9% and -4.036% |
| 32 | `Cn1cnc(-c2nc(C(=O)NC3CC3)c3ccccn23)c1` | -8.642% | -18.58% |
| 33 | `C=Cc1ccc(C(=O)N2CCCC(Nc3ccc(F)c(F)c3)C2)cc1` (configuration not stated) | 37.38% | 50.5% and 32.52% |
| 34 | `CC(C)c1nccn1C1CCCN(C(=O)CN(C)C2CC2)C1` (configuration not stated) | -31.45% | -13.8% |
| 35 | `CC(=O)NCCNC(=O)c1cnc(-c2ccc(C)cc2C)s1` | -4.487% | -18.3% |
| 36 | `COc1ccc(CNC(=O)NC2CCN(CC3CCCC3)CC2)cn1` | 25.46% | 13.24% |
| 37 | `O=C(CN1CCCCCC1=O)NCC1CCN(c2ccccc2)C1` (configuration not stated) | 22.32% | 11.08% |
| 38 | `COc1ccc(C(N)=O)cc1NCc1ncc(C(C)(C)C)o1` | -42.78% | -21.85% |
| 39 | `O=C(Nc1nccs1)NC1CCOc2ccccc21` (configuration not stated) | 16.64% | -8.906% and -4.917% |
| 40 | `Cc1ccc(C2CCCN2S(=O)(=O)N(C)Cc2nccn2C)o1` (configuration not stated) | 23.59% | 9.134% |
| 41 | `Cc1ccccc1S(=O)(=O)NC(=O)C1(c2ccccc2)CCC1` | 23.97% | -0.4458% |
| 42 | `Fc1cccc2ncnc(NCCCc3ccncc3)c12` | 19.56% and 5.75% | 19.99% |
| 43 | `CN(CCCc1cnn(C)c1)C(=O)Nc1cccc2[nH]ncc12` | -12.76% | 6.089% |
| 44 | `Cc1ccc(F)cc1C(=O)NCc1ccc(C(=O)O)o1` | -13.04% | -22.27% |
| 45 | `CC(Nc1cccc2c1OCCO2)C(=O)Nc1cccc(C#N)c1` (configuration not stated) | -0.5455% | 15.66% |
| 46 | `CCN(CC)S(=O)(=O)c1ccc(NC(=O)C(C)(C)C)cc1` | 7.661% and -1.442% | 1.204% |
| 47 | `O=C(O)C(F)(F)F.[H][C@@]12CCCO[C@]1([H])[C@H](N(C)Cc1ccco1)CN(C(=O)c1ccc(C)o1)C2` | -26.7% | -5.209% |
| 48 | `CN(Cc1cc(Cl)c2c(c1)OCO2)Cc1cscn1` | -32.6% and 9.374% | 3.356% |
| 49 | `Cc1cc(C)c(CNC(=O)NC2COc3ccccc3C2)c(=O)[nH]1` (configuration not stated) | -6.217% | -2.608% |
| 50 | `CC(C)CN1CCCn2nc(CNC(=O)Cc3cccc(O)c3)cc2C1` | 16.94% and 0.7267% | 8.824% |
| 51 | `c1cc(C2CN(C3CCCCC3)C2)n[nH]1` | -12.25% | 4.685% and -9.632% |
| 52 | `CC(C)C1SCC(=O)Nc2c1cnn2-c1ccc(Cl)cc1F` (configuration not stated) | 22.51% | 14.03% |
| 53 | `COc1c(Br)cc(Cl)cc1NCc1c(C)noc1C` | -12.55% | -7.379% |
| 54 | `Cc1ncsc1CNc1ccn(Cc2ccccc2)n1` | 29.44% | 5.151% |
| 55 | `O=C(O)C(F)(F)F.OCCN1CCC(F)(F)C2(CCN(c3cnccn3)C2)C1` (configuration not stated) | 0.3522% | -1.177% |
| 56 | `Cc1occc1C(=O)N1CCC2(CCN(Cc3nccs3)C2)CC1.O=C(O)C(F)(F)F` | 20.82% | -11.58% |
| 57 | `COc1ccc(N2CCN(CC(O)c3ccc(C)cc3C)CC2)cc1` (configuration not stated) | 11% | -22.56% |

From ChEMBL document CHEMBL3988442, “University of Dundee, Small-Polar-MMV Screening Library” (2021).